# According to PubChem BioAssay AID743266 (National Center for Advancing Translational Sciences (NCATS), 2014):
# Chains of the proteins cited; added tags and fusions are not shown. Lines headed by an entry give the natural chain unless they say otherwise; changes in a name come on top.
# UniProt Q03431: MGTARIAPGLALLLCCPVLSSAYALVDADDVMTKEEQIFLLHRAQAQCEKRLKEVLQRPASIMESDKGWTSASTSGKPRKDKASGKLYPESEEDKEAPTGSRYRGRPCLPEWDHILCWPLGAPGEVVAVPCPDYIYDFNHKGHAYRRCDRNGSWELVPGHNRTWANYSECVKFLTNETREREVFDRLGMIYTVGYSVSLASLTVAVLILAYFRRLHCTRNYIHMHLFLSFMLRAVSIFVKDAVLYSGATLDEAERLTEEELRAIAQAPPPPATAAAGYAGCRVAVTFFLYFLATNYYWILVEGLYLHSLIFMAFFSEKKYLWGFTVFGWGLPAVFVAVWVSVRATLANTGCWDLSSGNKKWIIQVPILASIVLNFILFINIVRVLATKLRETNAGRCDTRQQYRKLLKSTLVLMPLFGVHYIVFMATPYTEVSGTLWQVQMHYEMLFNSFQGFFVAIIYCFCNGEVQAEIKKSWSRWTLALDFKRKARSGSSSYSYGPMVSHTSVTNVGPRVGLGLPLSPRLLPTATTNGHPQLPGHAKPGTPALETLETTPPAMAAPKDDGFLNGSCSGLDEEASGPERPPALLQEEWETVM
# Screen size: about 410,000 compounds; about 310 (0.076%) were called active. This list was built around the results that the source calls inconclusive (neither active nor inactive); the mix of calls is not that of the screen. Calls come from the whole dose curve; as a rule, active = well fitted activation curve with a large enough effect; inconclusive = small, poorly fitted or top-dose-only effect, or another doubt; inactive = no such curve, though single readings can be large or run the other way. Potencies of inconclusive entries are doubtful fits and often do not repeat.
# Biological target: Parathyroid hormone/parathyroid hormone-related peptide receptor (Homo sapiens) (UniProt Q03431)
# Assay: qHTS for PTHR1 Agonists: Primary Screen; note: nearly all actives have a fitted effect of over 55% in size
# Settings: HEK293 GP2 PTHR1 cells, GloSensor cAMP luminescence, 1 h; activation: at 115 µM (top of the series) unless noted; series mostly up to 115 µM
# Method in brief: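 HEK-293-derived GP2 cells expressing PTHR1 and a GloSensor cAMP reporter, 3,000/well, plated overnight, given luciferin plus IBMX (each 0.5 mM as added) for 1 h at 37 °C, then compound for 1 h at 37 °C. Luminescence was read after 15 min at room temperature.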
# Potency is the fitted concentration of half-maximal effect.
SMILES,activation,Potency
CN=C(SCC(=O)c1cccc(Cl)c1)c1c(O)n(C)c(=O)n(C)c1=O,inconclusive: -71.2% [activator],
O=c1c2ccccc2nc(-c2ccccc2)n1-c1ccncc1,,"inconclusive: 50.1 µM [activator, partial curve, poor fit]"
COc1ccc(CCn2c(O)c(/C=N/NC(=O)c3ccncc3)c(=O)[nH]c2=O)cc1OC,inconclusive: 43.1% [activator],
CC(=O)c1ccc2c(c1)C1C(Cl)C(Sc3ccccc3[N+](=O)[O-])CC1C(c1ccccc1[N+](=O)[O-])N2 (centres undefined),,inactive
CCCC[N+]12CCC(CC1)C(=C(c1ccccc1)c1ccccc1)C2,,inactive
CN1CCN(Cc2ccc(Br)s2)CC1,,inactive
CC(NCc1cccc(Cl)c1Cl)C(O)c1ccccc1 (centres undefined),,"inconclusive: 56.2 µM [activator, partial curve, poor fit]"
CCOP(=S)(OCC)c1ccc(N(C)C)cc1,,active: 17.8 µM
O=C(c1ccccc1[N+](=O)[O-])N1CCC2(CC1)OCCO2,,"inconclusive: 100 µM [activator, single point]"
COC(=O)C1=C(c2cccc(OC)c2OC)C[C@@H]2CC[C@H]1N2C(=O)NCCO,,"inconclusive: 6.31 µM [activator, full curve, poor fit]"
COC(=O)C(O)(c1ccc(N(C)C(=O)OC(C)C)cc1)C(F)(F)F (centres undefined),,"inconclusive: 22.4 µM [activator, partial curve, poor fit]"
CC(Cc1ccc(O)cc1)NCC(O)c1ccc(O)c(O)c1 (centres undefined),inconclusive: 0.819% [activator],
O=C(O)C1(Br)CC12c1ccccc1-c1ccccc12 (centres undefined),,inactive
Clc1cccc(C2NCc3ccccc3-n3cccc32)c1 (centres undefined),inconclusive: 66.7% [activator],
O=C1NC(=O)C(=Cc2ccc(Cl)cc2)C(=O)N1,,inactive
CN1CCN(Cc2nc3ccccc3n2C)CC1,,inactive
c1ccc2c(CCN3CCCCC3)c[nH]c2c1,,"inconclusive: 35.5 µM [activator, single point]"
O=C(CN1CCN(c2ccccc2)CC1)Nc1cccc(C(F)(F)F)c1,,"inconclusive: 39.8 µM [activator, single point]"
COc1ccc(N2C(=O)/C(=C/c3ccc(N(C)C)o3)C(=O)NC2=S)cc1,,"inconclusive: 126 µM [activator, single point]"
CCCCn1c(O)c(C(C)=NCCN2CCOCC2)c(=O)[nH]c1=O,,"inconclusive: 28.2 µM [activator, single point]"
Cc1ccc2c(c1)C1CN(C)CCC1N2S(=O)(=O)c1ccccc1 (centres undefined),,"inconclusive: 39.8 µM [activator, single point]"
COc1cccc(N2C(=O)NC(=O)C3(Cc4cc(C)ccc4N(C)C3)C2=O)c1 (centres undefined),,"inconclusive: 35.5 µM [activator, single point]"

# Single values from above.
# Potency, `Cc1ccc2c(c1)C1CN(C)CCC1N2S(=O)(=O)c1ccccc1` (centres undefined) is entered as inconclusive: 39.8 µM [activator, single point]
# Potency, `COC(=O)C1=C(c2cccc(OC)c2OC)C[C@@H]2CC[C@H]1N2C(=O)NCCO` is entered as inconclusive: 6.31 µM [activator, full curve, poor fit]
# Potency, `CCOP(=S)(OCC)c1ccc(N(C)C)cc1` is entered as active: 17.8 µM

# Following part.

SMILES,activation,Potency
CC1CCCCN1Cc1cccnc1 (centres undefined),,"inconclusive: 126 µM [activator, single point]"
COc1nnc(-c2ccc(N3CCCCC3)c(NC(=O)c3ccc(Cl)cc3)c2)c2ccccc12,,"inconclusive: 11.2 µM [activator, partial curve, poor fit]"
O=c1[nH]c(SCc2ccccc2Cl)nc2c1CCCC2,,"inconclusive: 0.282 µM [activator, full curve, poor fit]"
COc1ccc2oc(=O)c(C(=O)NCCc3c(C)[nH]c4ccc(F)cc34)cc2c1,,inactive
NC(Cc1ccccc1)c1nc(-c2ccccc2)no1 (centres undefined),inconclusive: 63.4% [activator],
Cc1cc(/C=C2\C(=O)NC(=O)N(c3ccccc3F)C2=O)c(C)n1-c1cc(C(=O)O)cc(C(=O)O)c1,,"inconclusive: 79.4 µM [activator, partial curve, poor fit]"
O=C1NC(=O)N(Cc2ccc(F)cc2)C(=O)/C1=C\C=C\c1ccco1,,inactive
CCOC(=O)c1ccc(-[n+]2c(-c3ccccc3)cc(-c3ccccc3)cc2-c2ccccc2)cc1,inconclusive: -89% [activator],
CC(NCC#Cc1ccccc1)C(O)c1ccccc1 (centres undefined),,"inconclusive: 112 µM [activator, single point]"
NCC(=O)c1ccccc1,,inactive
COc1ccc(Cl)cc1NC(=O)CN1C(=O)CN=C(c2ccccc2)c2cc(Cl)ccc21,,"inconclusive: 44.7 µM [activator, single point]"
CCC(=O)Nc1nc2ccccc2n1CCN(C)C,,"inconclusive: 2.82 µM [activator, partial curve]"
Cc1oc(-c2ccc(Cl)cc2)nc1CN1CCC(C(=O)NCCCN2CCN(c3cccc(Cl)c3)CC2)CC1,,inactive
COC(=O)C1=C(c2cccc(OCc3ccccc3)c2)C[C@@H]2CC[C@H]1N2C(=O)NCc1ccc(Cl)cc1,,inactive
CC(=O)OCC[N+](C)(C)C,,inactive
c1ccc(C2(N3CCCCC3)CCCCC2)cc1,,inactive
CC(C(=O)c1cn(C)c2ccccc12)c1ccccc1 (centres undefined),,inactive
COC(=O)c1ccc(CN2CCN(Cc3ccccc3)CC2)cc1,,inactive
Cc1oc2ccc(O)c(CN3CCCCCC3)c2c1C(=O)Nc1cccc(Cl)c1C,,"inconclusive: 2.82 µM [activator, full curve, poor fit]"
CN1CCc2cc3c(c4c2C1Cc1ccccc1-4)OCO3 (centres undefined),,"inconclusive: 2.82 µM [activator, full curve, poor fit]"
O=C(c1cccnc1)c1cc2ccccc2[nH]1,,inactive
CCOC(=O)N1CCN(C(=O)c2ccc3c(=O)n(CCC4=CCCCC4)c(=S)[nH]c3c2)CC1,,"inconclusive: 35.5 µM [activator, single point]"
